Source: patent publication US20070197485A1, “Therapy and Use of Compounds in Therapy” (MAX-DELBRUECK-CENTRUM FUR MOLEKULARE MEDIZIN, priority 1999, published 2007)
At least one compound was matched to its structure with a doubt left.

Columns and labels:
[1] = published randomised controlled trials, primary biliary cirrhosis; cited from earlier work
plasma levels of TNF = assay: Plasma TNF levels in cachectic liver cirrhosis patients treated with UDCA; type: in vivo, human; conditions: patient 1 (elevated at baseline); 3 times 250 mg daily UDCA, during 5 days of treatment
[2] = tested on: whole blood TNF production; assay: Whole blood TNF production after therapeutic application of UDCA; type: in vivo, human; conditions: patient 4; after 1 and 2 days of treatment, 3 times 250 mg daily
Procedure: (§1) We have tested the ability of the therapeutic application of ursodeoxycholic acid (UDCA, FALK Pharma GmbH) to lower plasma levels of TNF and IL6 and to lower spontaneous and LPS-stimulated whole blood cytokine production in patients with cachexia.
(§2) We studied in 2 patients with cachexia due to liver cirrhosis plasma cytokine levels after treatment with 3 times 250 mg daily UDCA (FALK Pharma GmbH). The patients had weight loss >7.5% compared to their previous normal weight. The patients were studied at baseline prior to the treatment on 2 subsequent days (day ”−1” and day “0”), and then they were restudied on day 1 (“1”), day 2 (“2”), and day 5 (“5”), see FIGS. 9 and 12.
(§3) Methods: Heparinized whole blood was diluted 1:10 with medium ±LPS (50 pg/ml), ±BPI (1 ug/ml), and ±UDCA (1 ug/ml-1 mg/ml) according to the manufacturer's recommendation (Milenia whole blood assay; DPC Biermann, Bad Nauheim, Germany) and incubated for 4 hours at 37° C. In the supernatant and in plasma, we assessed concentrations of TNF and IL-6 using the semiautomated Immulite system (DPC-Biermann, Bad Nauheim, Germany).

[3] = tested on: monocyte generated cytokine production in response to LPS; conditions: in vitro, in the concentrations used; cited from earlier work
[4] = tested on: whole blood IL6 production; assay: Whole blood IL6 production after therapeutic application of UDCA; type: in vivo, human; conditions: patient 4; after 1 and 2 days of treatment, 3 times 250 mg daily
Procedure: as §1, §2, §3

[5] = patients with chronic hepatitis C, cited from earlier work

C[C@H](CCC(=O)O)[C@H]1CC[C@H]2[C@@H]3[C@@H](O)C[C@@H]4C[C@H](O)CC[C@]4(C)[C@H]3CC[C@]12C [UDCA, ursodeoxycholic acid]
therapeutic benefit [1]: do not show evidence of therapeutic benefit
plasma levels of TNF (plasma levels of TNF): lower
spontaneous production of TNF in whole blood [2]: reduced substantially to almost undetectable
effect on monocyte generated cytokine production in response to LPS [3]: ineffective
spontaneous production of IL6 in whole blood [4]: reduced substantially to almost undetectable
serum IL-6 levels ([5]; UDCA treatment): could not be shown to be affected
clinical benefit [5]: no clinical benefit
